In the supplement of paper PMC12889115:
The list shows a part of the results. These are raw signals, not scaled to a control.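 First-pass screen: polymyxin B was added at a level that permeabilizes the Salmonella outer membrane while sparing the inner membrane. DMSO wells, with and without polymyxin B, defined maximum growth. Because plates differed from one another, each plate's data were ranked separately and the compounds with the lowest OD600 were carried forward as hits.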

Test system: Salmonella enterica serovar Typhimurium SL1344
Assay: bacterial growth OD600 after 18 h with compound and polymyxin B; higher = more bacterial growth (less inhibition)
Settings: 50 µM, Mueller-Hinton broth

| SMILES | bacterial growth OD600 (polymyxin B 1 µg/mL) | bacterial growth OD600 (polymyxin B 0.75 µg/mL) |
| --- | --- | --- |
| C=CCS(=O)(=O)N1CCCC(Cc2cccc(OC)c2)(C(=O)OCC)C1 (stereo unspecified) | 0.907 | – |
| Cc1noc(C)c1CCC(=O)NC1CC(=O)N(CC2CCCCC2)C1 (stereo unspecified) | 1.09 | – |
| COc1ccc(OC2CCN(C(C)=O)CC2)c(C(=O)NCCc2nc(C)c(C)s2)c1 | 0.932 | – |
| CCC(COC)Nc1ccc(-c2nc(Cc3ccccc3)no2)cn1 (stereo unspecified) | – | 0.016 |
| COC(=O)c1c(S(=O)(=O)NCc2ccccc2)sc2c1CCN(C(=O)CCc1ccccc1)C2 | – | 0.763 |
| CN(CC1CCCN(CCc2ccc(F)cc2)C1)C(=O)c1cc2ccccc2cn1 (stereo unspecified) | 0.843 | – |
| Cc1c(C(C)NCc2ccc(Cl)c(F)c2)cnn1-c1ccccc1 (stereo unspecified) | – | 0.818 |
| CO[C@H]1[C@H](NC(=O)c2ccncc2)c2ccccc2C12CCN(C(=O)CCC(C)C)CC2 | – | 0.863 |
| CN(CCc1cnn(C)c1)C(=O)CC1(c2cccc(F)c2)CC(=O)N(Cc2cccnc2)C1=O (stereo unspecified) | – | 0.848 |
| Cn1nnnc1SCCNC(=O)c1ccc2oc(Cc3ccccc3)nc2c1 | – | 0.802 |
| O=C(c1ccccc1OC1CCN(Cc2ccc(OCCO)cc2)CC1)N1CCCCC1 | – | 0.82 |
| O=C(CCCc1ccccc1)NC1CCCN(CCc2ccccc2)C1 (stereo unspecified) | 0.572 | – |
| Cc1ccc2oc(C(=O)N3CCCC(C(=O)c4cccs4)C3)c(C)c2c1 (stereo unspecified) | 0.035 | – |
| C=CCO[C@H]1[C@H](NC(=O)CSC)c2ccccc2C12CCN(Cc1ccc(Cl)cc1)CC2 | – | 0.949 |
| Cc1ccccc1CC(C1CCN(C(=O)/C=C/c2ccccc2)CC1)N(C)C(=O)Cn1cccn1 (stereo unspecified) | – | 0.778 |
| COc1cccc(OCc2nc(C(=O)NC3CCC3)co2)c1 | 0.938 | – |

| SMILES | bacterial growth OD600 (polymyxin B 1 µg/mL) | bacterial growth OD600 (polymyxin B 0.75 µg/mL) |
| --- | --- | --- |
| CC(C)N(C)C(=O)C1CCCN(C2CCN(C(=O)C3CC3)CC2)C1 (stereo unspecified) | – | 0.85 |
| O=C1CCCCN1CCC(=O)N1CCCC(CCc2ccc(F)cc2F)C1 (stereo unspecified) | – | 0.91 |
| COCC(=O)Nc1cc(C(=O)NC(C)c2ccc(F)cc2)c2c(c1)ncn2CCc1ccccc1 (stereo unspecified) | – | 0.69 |
| Cc1ccoc1C(=O)N1CCC(CCC(=O)Nc2ccc(F)c(Cl)c2)CC1 | 0.888 | – |
| COc1ccc(C2(CC(=O)N3CCC(Oc4ccc(F)cc4)CC3)CC(=O)N(C3CC3)C2=O)cc1 (stereo unspecified) | – | 0.884 |
| COCCCN1C(=O)CC(CC(=O)N(C)Cc2ccco2)(c2ccccc2Cl)C1=O (stereo unspecified) | – | 0.705 |
| CC(C)CC(=O)NC1CCCc2nc(-c3ccccc3)ncc21 (stereo unspecified) | 0.87 | – |
| COc1cc(CN2CCN(Cc3c(OC)ccc4ccccc34)CC2CCO)cc(OC)c1 (stereo unspecified) | 0.798 | – |
| COc1ccc(Cc2noc(-c3ccc(NCCc4cnccn4)nc3)n2)cc1 | 0.85 | – |
| CCC(NC(=O)CCc1nnc(-c2ccc3c(c2)OCO3)o1)c1ccc(F)cc1 (stereo unspecified) | – | 0.813 |
| CCOC(=O)C1(Cc2ccccc2)CCN(Cc2cc(OC)c3c(c2)OCO3)CC1 | – | 0.876 |
| O=S(=O)(Cc1ccccc1)NCC1CCCN(Cc2nc3ccccc3s2)C1 (stereo unspecified) | 0.887 | – |
| COC(=O)CNC(=O)CC(c1ccccc1)c1ccccc1Cl (stereo unspecified) | 0.805 | – |
| Cc1cnc(SCc2ccccn2)nc1C1CCCN(C(=O)/C=C/c2ccc(F)cc2)C1 (stereo unspecified) | – | 0.68 |
| O=C(CCN1Cc2ccccc2OC(c2ccccc2)C1)NCC1CCCN(c2ncccn2)C1 (stereo unspecified) | – | 0.012 |

An excerpt from above in order of molar mass, low to high.

| SMILES | bacterial growth OD600 (polymyxin B 1 µg/mL) | bacterial growth OD600 (polymyxin B 0.75 µg/mL) |
| --- | --- | --- |
| Cc1ccoc1C(=O)N1CCC(CCC(=O)Nc2ccc(F)c(Cl)c2)CC1 | 0.888 | – |
| O=S(=O)(Cc1ccccc1)NCC1CCCN(Cc2nc3ccccc3s2)C1 (stereo unspecified) | 0.887 | – |
| O=C(CCN1Cc2ccccc2OC(c2ccccc2)C1)NCC1CCCN(c2ncccn2)C1 (stereo unspecified) | – | 0.012 |
